# Results as given in the supplement of paper PMC8728848.
# The list shows a part of the results.
# B1: Adiponectin (Rattus norvegicus), Q8K3R4 (protein)
# chain: MLLLQALLFLLILPSHEGITATEGPGALVPPPKETCAGWMAGIPGYPGHNGIPGRDGRDGTPGEKGEKGDAGVLGPKGDPGDAGMTGAEGPRGFPGTPGRKGEPGEAAYMYHSAFSVGLETRVTVPNVPIRFTKIFYNQQNHYDGSTGKFHCNIPGLYYFSYHITVYMKDVKVSLFKKDKAVLFTYDQYQEKNVDQASGSMLLHLEVGDQVWLQVYGEGDNNGLYADNVNDSTFTGFLLYHDTN
# Key:
# Experiment in all cases: glycan array binding signal (z-score within array); higher = stronger binding
# Settings in all cases: glycan notation: IUPAC condensed, linker removed
# [1] = target: Gal(b1-4)GlcNAc(b1-3)Gal(b1-3)GlcNAc
# Method in brief: (§1)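 The binding signal is a Z-score computed within each array and averaged over linkers. Arrays of the same protein sequence at different concentrations or buffers were also averaged together. Data originate from 3228 arrays in the Consortium for Functional Glycomics database, kept only where the protein sequence was available.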
# [2] = target: Gal(b1-4)GlcNAc(b1-3)Gal(b1-4)Glc
# Method in brief: as §1
# [3] = target: Gal(b1-4)GlcNAc(b1-3)Gal(b1-4)GlcNAc
# Method in brief: as §1
# [4] = target: Gal(b1-4)GlcNAc(b1-3)Gal(b1-4)GlcNAc(b1-3)Gal(b1-4)GlcNAc
# Method in brief: as §1
# [5] = target: Gal(b1-4)GlcNAc(b1-3)Gal(b1-4)[Fuc(a1-3)]GlcNAc(b1-3)Gal(b1-4)[Fuc(a1-3)]GlcNAc
# Method in brief: as §1
# [6] = target: Gal(b1-4)GlcNAc(b1-3)GalNAc
# Method in brief: as §1
# [7] = target: Gal(b1-4)GlcNAc(b1-3)[Gal(b1-4)GlcNAc(b1-6)]Gal(b1-4)GlcNAc
# Method in brief: as §1
# [8] = target: Gal(b1-4)GlcNAc(b1-3)[GlcNAc(b1-6)]Gal(b1-4)GlcNAc
# Method in brief: as §1
# [9] = target: Gal(b1-4)GlcNAc(b1-6)Gal(b1-4)GlcNAc
# Method in brief: as §1
# [10] = target: Gal(b1-4)GlcNAc(b1-6)Gal(b1-4)GlcNAc(b1-6)GalNAc
# Method in brief: as §1
# [11] = target: Gal(b1-4)GlcNAc(b1-6)GalNAc
# Method in brief: as §1
# [12] = target: Gal(b1-4)GlcNAc(b1-6)[Gal(b1-3)]GalNAc
# Method in brief: as §1
# Gal3S(b1-3)GalNAc = target: Gal3S(b1-3)GalNAc
# Method in brief: as §1
# Gal3S(b1-3)GlcNAc = target: Gal3S(b1-3)GlcNAc
# Method in brief: as §1
# [13] = target: Gal3S(b1-3)[Fuc(a1-4)]GlcNAc
# Method in brief: as §1
# Gal3S(b1-4)Glc = target: Gal3S(b1-4)Glc
# Method in brief: as §1
# Gal3S(b1-4)Glc6S = target: Gal3S(b1-4)Glc6S
# Method in brief: as §1
# Gal3S(b1-4)GlcNAc = target: Gal3S(b1-4)GlcNAc
# Method in brief: as §1
# Gal3S(b1-4)GlcNAc6S = target: Gal3S(b1-4)GlcNAc6S
# Method in brief: as §1
# [14] = target: Gal3S(b1-4)[Fuc(a1-3)]Glc
# Method in brief: as §1
# Gal3S4S(b1-4)GlcNAc = target: Gal3S4S(b1-4)GlcNAc
# Method in brief: as §1
# Gal3S6S(b1-4)GlcNAc = target: Gal3S6S(b1-4)GlcNAc
# Method in brief: as §1
# Gal3S6S(b1-4)GlcNAc6S = target: Gal3S6S(b1-4)GlcNAc6S
# Method in brief: as §1
# Gal4S(b1-4)GlcNAc = target: Gal4S(b1-4)GlcNAc
# Method in brief: as §1
# Gal4S6S(b1-4)GlcNAc = target: Gal4S6S(b1-4)GlcNAc
# Method in brief: as §1
# Gal6S(b1-4)Glc = target: Gal6S(b1-4)Glc
# Method in brief: as §1
# Gal6S(b1-4)Glc6S = target: Gal6S(b1-4)Glc6S
# Method in brief: as §1
# Gal6S(b1-4)GlcNAc = target: Gal6S(b1-4)GlcNAc
# Method in brief: as §1
# Gal6S(b1-4)GlcNAc6S = target: Gal6S(b1-4)GlcNAc6S
# Method in brief: as §1
# GalNAc(a1-3)Gal = target: GalNAc(a1-3)Gal
# Method in brief: as §1
# GalNAc(a1-3)GalNAc = target: GalNAc(a1-3)GalNAc
# Method in brief: as §1
# GalNAc(b1-3)Gal = target: GalNAc(b1-3)Gal
# Method in brief: as §1
# [15] = target: GalNAc(b1-3)Gal(a1-4)Gal(b1-4)GlcNAc
# Method in brief: as §1
# [16] = target: GalNAc(b1-3)Gal(a1-4)Gal(b1-4)GlcNAc(b1-3)Gal(b1-4)Glc
# Method in brief: as §1
# GalNAc(b1-3)GalNAc = target: GalNAc(b1-3)GalNAc
# Method in brief: as §1
# GalNAc(b1-4)GlcNAc = target: GalNAc(b1-4)GlcNAc
# Method in brief: as §1
# [17] = target: GalNAc(b1-4)GlcNAc(b1-2)Man(a1-3)[GalNAc(b1-4)GlcNAc(b1-2)Man(a1-6)]Man(b1-4)GlcNAc(b1-4)GlcNAc
# Method in brief: as §1
# Glc(a1-4)Glc = target: Glc(a1-4)Glc
# Method in brief: as §1
binder,measurement,setting,value
B1,glycan array binding signal (z-score),[1],1.59
same,glycan array binding signal (z-score),[2],-0.428
same,glycan array binding signal (z-score),[3],-0.229
same,glycan array binding signal (z-score),[4],3.09
same,glycan array binding signal (z-score),[5],-0.654
same,glycan array binding signal (z-score),[6],1.07
same,glycan array binding signal (z-score),[7],0.332
same,glycan array binding signal (z-score),[8],-0.308
same,glycan array binding signal (z-score),[9],-0.757
same,glycan array binding signal (z-score),[10],-0.241
same,glycan array binding signal (z-score),[11],-0.792
same,glycan array binding signal (z-score),[12],-0.861
same,glycan array binding signal (z-score),Gal3S(b1-3)GalNAc,0.621
same,glycan array binding signal (z-score),Gal3S(b1-3)GlcNAc,-0.814
same,glycan array binding signal (z-score),[13],1.13
same,glycan array binding signal (z-score),Gal3S(b1-4)Glc,-0.489
same,glycan array binding signal (z-score),Gal3S(b1-4)Glc6S,2.51
same,glycan array binding signal (z-score),Gal3S(b1-4)GlcNAc,-0.78
same,glycan array binding signal (z-score),Gal3S(b1-4)GlcNAc6S,-0.821
same,glycan array binding signal (z-score),[14],-1.08
same,glycan array binding signal (z-score),Gal3S4S(b1-4)GlcNAc,0.706
same,glycan array binding signal (z-score),Gal3S6S(b1-4)GlcNAc,-0.657
same,glycan array binding signal (z-score),Gal3S6S(b1-4)GlcNAc6S,-0.626
same,glycan array binding signal (z-score),Gal4S(b1-4)GlcNAc,0.272
same,glycan array binding signal (z-score),Gal4S6S(b1-4)GlcNAc,1.12
same,glycan array binding signal (z-score),Gal6S(b1-4)Glc,-0.001
same,glycan array binding signal (z-score),Gal6S(b1-4)Glc6S,-0.053
same,glycan array binding signal (z-score),Gal6S(b1-4)GlcNAc,1.04
same,glycan array binding signal (z-score),Gal6S(b1-4)GlcNAc6S,-0.915
same,glycan array binding signal (z-score),GalNAc(a1-3)Gal,2.96
same,glycan array binding signal (z-score),GalNAc(a1-3)GalNAc,-0.694
same,glycan array binding signal (z-score),GalNAc(b1-3)Gal,-1.15
same,glycan array binding signal (z-score),[15],-0.627
same,glycan array binding signal (z-score),[16],-0.299
same,glycan array binding signal (z-score),GalNAc(b1-3)GalNAc,0.663
same,glycan array binding signal (z-score),GalNAc(b1-4)GlcNAc,-0.696
same,glycan array binding signal (z-score),[17],4.32
same,glycan array binding signal (z-score),Glc(a1-4)Glc,-0.624

# Reformatted bar-delimited: entries from further up
binder | measurement | setting | value
B1 | glycan array binding signal (z-score) | Gal3S4S(b1-4)GlcNAc | 0.706
same | glycan array binding signal (z-score) | Gal6S(b1-4)GlcNAc6S | -0.915
